Several values for one entry are separate records, joined by “and”; a condition that tells them apart may be missing. Identical values can stand only once. Hit rate of the full screen: of about 300,000 compounds, about 3,700 (1.2%) were called active. The inconclusive results got no clear call from the source; some entries with a clear call stand among them for comparison. The call rests on the fitted dose curve; tested in HEK293 cells. A potency beside an inconclusive call is a rough fit, not a confirmed value.
assay: qHTS for Inhibitors of binding or entry into cells for Lassa Virus; conditions: Lassa virus pseudotype entry inhibition, cell reporter; series mostly up to 37.9 µM; further: nearly all actives have a fitted effect of over 50% in size
Potency means the concentration at half of the fitted maximal effect.

| Compound | Potency |
| --- | --- |
| COc1ccc(NC(=O)c2c3c(nc4ccccc24)CCN(Cc2ccccc2)C3)c(OC)c1 | inconclusive: 0.58 µM [inhibitor, full curve, poor fit] |
| O=C(c1ccccc1-c1ccccc1)N1CCN(c2ccccn2)CC1 | inconclusive: 1.41 µM [inhibitor, partial curve, poor fit] |
| CCCCc1n(CC(=O)c2ccc(Cl)cc2)c2ccccc2[n+]1C | inconclusive: 7.08 µM [inhibitor, full curve, poor fit] |
| O=C(N/N=C/c1cccs1)c1cccc(NC(=O)c2ccc(Cl)cc2)c1 | inconclusive: 10.3 µM [activator, partial curve, poor fit] |
| CCOC(=O)OC[C@H]1O[C@H](C#Cc2ccc(C(C)(C)C)cc2)C=C[C@H]1OC(=O)OCC | inconclusive: 3.76 µM [inhibitor, partial curve, poor fit] |
| O=C(/C=C\c1ccc(-c2ccccc2)o1)c1ccccc1 | inconclusive: 11.2 µM [inhibitor, partial curve, poor fit] |
| CCc1ccc(CNC(=O)C2CCCN(c3nnc(C)c4c(C)n(-c5ccc(OC)cc5)nc34)C2)cc1 (configuration not stated) | inconclusive: 3.16 µM [inhibitor, single point] |
| CCCCCCn1c(SCCN2CCOCC2)nc2c1c(=O)[nH]c(=O)n2C | inconclusive: 6.51 µM [activator, single point] |
| O=C(CCN1C(=O)S/C(=C\c2cccs2)C1=O)NC1=NCCS1 | inactive |
| Cc1c(C(=O)Nc2ccccc2Cl)sc2ncnc(N(C)C3CCCCC3)c12 | inactive |
| COc1cc(Cl)c(NC(=O)c2cc(CN3CCCC3)on2)c(OC)c1 | inactive |
| CCN(CC)c1ccc(/C=N/NC(=O)c2cccc(S(=O)(=O)Nc3ccccc3OC)c2)c(O)c1 | active: 0.316 µM |
| Cc1ccc(Oc2ccc(NC(=O)CCC(=O)OCC(=O)c3cccs3)cc2)cc1C | inactive |
| CCn1cc([N+](=O)[O-])c(C(=O)N2CCOCC2)n1 | inconclusive: 15.8 µM [activator, partial curve, poor fit] |
| C/C(=N\NC(=O)c1cc(O)ccc1O)c1cccc(NC(=O)c2ccc(Cl)cc2)c1 | inconclusive: 25.1 µM [inhibitor, single point] |
| CN(C)C(=O)c1ccc(NC(=O)c2ccccc2-c2ccccc2)cc1 | inconclusive: 1.26 µM [inhibitor, partial curve, poor fit] |
| CCN1C(=O)/C(=C/c2cnn(CC)c2C)SC1=S | inconclusive: 20.6 µM [activator, partial curve, poor fit] |
| CCOC(=O)N1CC=C2C(C#N)=C(N)C(C#N)(C#N)[C@H](c3ccc(OCC)c(OCC)c3)[C@H]2C1 | inconclusive: 14.6 µM [inhibitor, partial curve, poor fit] |
| O=C(Nc1ccccc1C(F)(F)F)c1ccc(CN2CCC(Cc3ccccc3)CC2)cc1 | inconclusive: 35.5 µM [inhibitor, single point] |
| Cc1cc(/C=C(\C#N)C(=O)Nc2ccccc2)c(C)n1-c1ccc2c(c1)OCO2 | inconclusive: 20.6 µM [inhibitor, single point] |
| O=c1c(=O)n(-c2ccccc2)ccn1Cc1cccc(C(F)(F)F)c1 | inactive |

| Compound | Potency |
| --- | --- |
| COc1cc(NC(=O)c2ccccc2-n2cnnn2)cc(OC)c1 | inactive |
| COc1cc(/C=C(/C(=O)c2cccs2)c2nc3ccccc3[nH]2)cc(OC)c1O | inconclusive: 18.3 µM [inhibitor, single point] |
| O=S(=O)(c1ccc2c(c1)OCCO2)N1CCc2ccccc21 | inconclusive: 25.1 µM [inhibitor, single point] |
| O=C(CSc1nccn1-c1ccc(Cl)cc1)Nc1cccc2ccccc12 | inconclusive: 35.5 µM [inhibitor, single point] |
| N#CC(Cc1ccc(OC(F)F)cc1)c1nc2ccccc2[nH]1 (configuration not stated) | inconclusive: 5.62 µM [activator, full curve, poor fit] |
| O=C(N/N=C/c1c(O)n(C2CCCCC2)c(=S)[nH]c1=O)c1ccccc1 | inactive |
| CC(C)C(=O)NN(C(=O)C(C)C)c1nc2ccccc2s1 | inconclusive: 28.2 µM [activator, single point] |
| CCOC(=O)Cn1c(=O)n(C2CCCCC2)c2nc(-c3ccc(OCC)cc3)nc(C(N)=O)c21 | inconclusive: 1.58 µM [activator, full curve, poor fit] |
| C=CCn1c(SCC(=O)Nc2cccnc2Cl)nnc1-c1ccccc1F | inconclusive: 13 µM [inhibitor, partial curve, poor fit] |
| CCOc1cc(C)c(Cl)cc1S(=O)(=O)NC1CC(C)(C)NC(C)(C)C1 | inconclusive: 29.1 µM [inhibitor, single point] |
| Cc1ccc(N(C(=O)c2snc(C(N)=O)c2N)C(C(=O)NCC2CCCO2)c2c[nH]c3ccccc23)cc1 (configuration not stated) | inconclusive: 7.08 µM [inhibitor, partial curve, poor fit] |
| Cn1c(=O)c2c(nc(-c3ccccc3)n2C)n(Cc2ccccc2)c1=O | inconclusive: 4.61 µM [inhibitor, single point] |
| COc1ccc(OC)c(S(=O)(=O)NCc2cc(-c3ccccc3)no2)c1 | inconclusive: 3.55 µM [activator, full curve, poor fit] |
| Brc1ccc(/C=N/Nc2ncnc3c2cnn3Cc2ccccc2)cc1 | inactive |
| CCOC(=O)C(Cc1ccccc1)(Cc1ccccc1)C(C)=O | inconclusive: 1 µM [inhibitor, single point] |
| COc1ccc(C(=O)C(C)OC(=O)c2cccc(S(=O)(=O)Nc3cc(Cl)c(OC)cc3OC)c2)cc1 (configuration not stated) | inconclusive: 16.4 µM [inhibitor, single point] |
| CCOC(=O)c1c(C)oc2c1c(C=NCc1ccccn1)c(O)c1ccccc12 | active: 14.1 µM |
| C[C@@H](N)C(=O)NC[C@H]1CC[C@H](C(=O)N[C@@H](Cc2ccccc2)C(=O)O)CC1 | inactive |
| O=c1cc(-c2ccccc2)nc2n1Cc1ccccc1-2 | inconclusive: 0.13 µM [activator, full curve, poor fit] |
| CN(C(=O)c1ccc(-c2nn(C)c(=O)c3ccccc23)cc1)C1CCCCC1 | inconclusive: 0.1 µM [inhibitor, full curve, poor fit] |
| O=C(COc1ccc(F)cc1)N1CCC(c2ccccc2)C1 (configuration not stated) | inactive |

| Compound | Potency |
| --- | --- |
| CCOC(=O)N1CCN(C(=O)/C(=C/c2cccc3ccccc23)NC(=O)c2ccc(OC)cc2)CC1 | inconclusive: 0.73 µM [inhibitor, full curve] |
| COc1ccc(Cn2ccnc2SCC(=O)NC2CCCC2)cc1 | inconclusive: 7.08 µM [inhibitor, full curve, poor fit] and inconclusive: 1.58 µM [activator, partial curve, poor fit] |
| Cc1ccc(C2Oc3ccccc3C3=C2C(c2cccs2)n2ncnc2N3)cc1 (configuration not stated) | inconclusive: 2.59 µM [inhibitor, full curve] |
| Cc1ccc(C(=O)Nc2nc(N)n(-c3ccccc3)n2)cc1 | inconclusive: 0.562 µM [inhibitor, partial curve, poor fit] |
| CCOC(=O)Cn1nnnc1C(CC)N(Cc1cccs1)Cc1cc2cc(C)ccc2[nH]c1=O (configuration not stated) | inconclusive: 10 µM [inhibitor, single point] |
| CC(CCc1ccccc1)NC(=O)Cn1c(=O)nc(-c2ccccc2F)c2cc(Cl)ccc21 (configuration not stated) | inconclusive: 14.1 µM [inhibitor, partial curve, poor fit] |
| CN1c2ccccc2-c2nc3ccccc3n2C1c1cccs1 (configuration not stated) | inconclusive: 14.1 µM [inhibitor, single point] |
| COc1ccccc1-n1c(SCC(=O)Nc2ccc(NC(C)=O)cc2)nc2c([nH]c3ccccc32)c1=O | inactive |
| O=c1cc(C(F)(F)F)[nH]c2ccc(C(F)(F)F)cc12 | inconclusive: 35.5 µM [inhibitor, single point] |
| CCOC(=O)/C(C#N)=C/c1c[nH]c2ccccc12 | inconclusive: 0.562 µM [activator, full curve, poor fit] |
| Cc1c2cnn(CC(=O)NCC(C)c3ccccc3)c(=O)c2c(C)n1Cc1cccc(Cl)c1 (configuration not stated) | inactive |
| COc1ccccc1Cn1cc(C(=O)c2ccc(Cl)cc2)c(=O)c2ccccc21 | inconclusive: 3.16 µM [inhibitor, full curve, poor fit] |
| CCn1ccc2cc(S(=O)(=O)N3CCC(C(=O)NCCc4ccccc4Cl)CC3)ccc21 | inconclusive: 25.1 µM [inhibitor, single point] |
| CC(=O)c1ccccc1OCCCN1CCCCC1 | inactive |
| Cc1ccc(CN2CCN(/N=C/c3ccc(C)s3)CC2)cc1 | inactive |
| CC(C)OCCCNC(=O)c1cn(C)c2ccc(S(=O)(=O)N3CCCCCC3)cc2c1=O | inactive |
| CCOC(=O)c1c(C)[nH]c(C(=O)COC(=O)c2ccc(F)c(S(=O)(=O)N3CCOCC3)c2)c1C | inconclusive: 0.1 µM [inhibitor, full curve, poor fit] |
| CCOC(=O)C1C(=O)C=C(/C=C/c2ccc(N(C)C)cc2)CC1c1ccccc1 (configuration not stated) | inconclusive: 3.55 µM [inhibitor, full curve] |
| CN(C)/C(=N\S(=O)(=O)c1ccc(Cl)cc1)c1ccc(F)cc1 | inconclusive: 8.91 µM [activator, partial curve] |
| COc1ccc(-n2ncc3c2CC(C)(C)CC3NC(=O)CN2CCOC2=O)cc1 (configuration not stated) | inconclusive: 0.562 µM [inhibitor, full curve, poor fit] |
